In article doi:10.1101/2021.09.02.458734:
No constants are given. Whether binding was seen depends on the method and setting. Binding seen in cells or lysates may run through a third protein. Some binding calls cover weakened binding; strength is not graded here.

Molecular target: T1, integrin-β6 (mouse (endogenous in mouse heart)) (UniProt Q9Z0T9)
T1 sequence: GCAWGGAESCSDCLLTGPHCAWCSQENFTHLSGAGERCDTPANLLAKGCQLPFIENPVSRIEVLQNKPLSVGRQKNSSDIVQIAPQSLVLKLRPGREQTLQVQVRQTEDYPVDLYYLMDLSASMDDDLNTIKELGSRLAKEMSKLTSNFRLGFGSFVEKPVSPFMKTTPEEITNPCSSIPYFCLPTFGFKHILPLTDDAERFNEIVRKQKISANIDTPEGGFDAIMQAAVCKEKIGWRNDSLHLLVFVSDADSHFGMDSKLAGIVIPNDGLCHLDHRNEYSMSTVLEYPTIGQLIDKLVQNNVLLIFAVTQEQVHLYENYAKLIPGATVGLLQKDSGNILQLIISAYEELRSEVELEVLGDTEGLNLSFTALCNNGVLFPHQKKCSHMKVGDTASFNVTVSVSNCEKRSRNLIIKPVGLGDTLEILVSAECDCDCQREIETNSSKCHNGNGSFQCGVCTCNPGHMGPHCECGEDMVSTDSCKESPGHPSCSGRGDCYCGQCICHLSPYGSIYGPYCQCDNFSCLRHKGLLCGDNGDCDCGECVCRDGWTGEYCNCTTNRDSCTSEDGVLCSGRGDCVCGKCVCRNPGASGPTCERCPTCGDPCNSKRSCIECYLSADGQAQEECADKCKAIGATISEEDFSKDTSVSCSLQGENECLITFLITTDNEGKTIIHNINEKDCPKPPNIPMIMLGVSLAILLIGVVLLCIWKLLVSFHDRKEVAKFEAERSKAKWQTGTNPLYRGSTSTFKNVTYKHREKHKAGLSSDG
Experiment: co-IP

B1: desmoglein-2 (DSG2), wild type, endogenous (protein, UniProt O55111 55-1122)
chain: AWITAPVALREGEDLSRKNPIAKIHSDLAEEKGIKITYKYTGKGITEPPFGIFVFDRNTGELNITSILDREETPYFLLTGYALDSRGNNLEKPLELRIKVLDINDNEPVFTQEVFVGSIEELSAAHTLVMKITATDADDPETLNAKVSYRIVSQEPANSHMFYLNKDTGEIYTTSFTLDREEHSSYSLTVEARDGNGQITDKPVQQAQVQIRILDVNDNIPVVENKMYEGTVEENQVNVEVMRIKVTDADEVGSDNWLANFTFASGNEGGYFHIETDTQTNEGIVTLVKEVDYEEMKKLDLSIIVTNKAAFHKSILSKYKATPIPITVKVKNVVEGIHFKSSVVSFRASEAMDRSSLSRSIGNFQVFDEDTGQAAKVTYVKVQDTDNWVSVDSVTSEIKLVKIPDFESRYVQNGTYTAKVVAISKEHPQKTITGTIVITVEDVNDNCPVLVDSVRSVCEDEPYVNVTAEDLDGAQNSAPFSFSIIDQPPGTAQKWKITHQESTSVLLQQSERKRGRSEIPFLISDSQGFSCPERQVLQLTVCECLKGGGCVAAQYDNYVGLGPAAIALMILALLLLLLVPLLLLICHCGGGAKGFTPIPGTIEMLHPWNNEGAPPEDKVVPSLLVADHAESSAVRGGVGGAMLKEGMMKGSSSASVTKGQHELSEVDGRWEEHRSLLTAGATHHVRTAGTIAANEAVRTRATGSSRDMSGARGAVAVNEEFLRSYFTEKAASYNGEDDLHMAKDCLLVYSQEDTASLRGSVGCCSFIEGELDDLFLDDLGLKFKTLAEVCLGRKIDLDVDIEQRQKPVREASVSAASGSHYEQAVTSSESAYSSNTGFPAPKPLHEVHTEKVTQEIVTESSVSSRQSQKVVPPPDPVASGNIIVTETSYAKGSAVPPSTVLLAPRQPQSLIVTERVYAPTSTLVDQHYANEEKVLVTERVIQPNGGIPKPLEVTQHLKDAQYVMVRERESILAPSSGVQPTLAMPSVAAGGQNVTVTERILTPASTLQSSYQIPSETSITARNTVLSSVGSIGPLPNLDLEESDRPNSTITTSSTRVTKHSTMQHSYS
- binding: binds
